# “And” between values parts separate entries of the source, which are not always exact repeats. Equal values may be shown once. The inconclusive results got no clear call from the source; some entries with a clear call stand among them for comparison. Potencies of inconclusive entries are doubtful fits and often do not repeat. The source made the active and inactive calls. Rule for the calls: active = hit-call score of the fitted dose curve at least 0.9, where 1 is the maximum; inconclusive = response in the unintended direction; inactive = score below 0.9.
# The chains behind the UniProt entries cited, without tags or fusion partners. Where a name states a change or a piece, a line headed by the entry shows the natural chain unless it says otherwise.
# UniProt P10276, whole entry, looked up: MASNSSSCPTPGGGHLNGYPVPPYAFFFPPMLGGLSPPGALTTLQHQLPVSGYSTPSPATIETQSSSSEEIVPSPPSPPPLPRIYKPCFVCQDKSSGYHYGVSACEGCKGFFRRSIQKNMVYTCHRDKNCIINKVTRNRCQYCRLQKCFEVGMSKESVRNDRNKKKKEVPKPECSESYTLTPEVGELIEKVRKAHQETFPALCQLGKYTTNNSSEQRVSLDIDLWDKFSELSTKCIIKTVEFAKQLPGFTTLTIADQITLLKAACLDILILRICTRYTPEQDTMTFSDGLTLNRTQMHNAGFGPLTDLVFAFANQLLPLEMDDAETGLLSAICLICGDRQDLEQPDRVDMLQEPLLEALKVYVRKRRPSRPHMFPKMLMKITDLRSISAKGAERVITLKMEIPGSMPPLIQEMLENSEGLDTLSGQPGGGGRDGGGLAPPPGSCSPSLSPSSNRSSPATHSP
# UniProt P37231: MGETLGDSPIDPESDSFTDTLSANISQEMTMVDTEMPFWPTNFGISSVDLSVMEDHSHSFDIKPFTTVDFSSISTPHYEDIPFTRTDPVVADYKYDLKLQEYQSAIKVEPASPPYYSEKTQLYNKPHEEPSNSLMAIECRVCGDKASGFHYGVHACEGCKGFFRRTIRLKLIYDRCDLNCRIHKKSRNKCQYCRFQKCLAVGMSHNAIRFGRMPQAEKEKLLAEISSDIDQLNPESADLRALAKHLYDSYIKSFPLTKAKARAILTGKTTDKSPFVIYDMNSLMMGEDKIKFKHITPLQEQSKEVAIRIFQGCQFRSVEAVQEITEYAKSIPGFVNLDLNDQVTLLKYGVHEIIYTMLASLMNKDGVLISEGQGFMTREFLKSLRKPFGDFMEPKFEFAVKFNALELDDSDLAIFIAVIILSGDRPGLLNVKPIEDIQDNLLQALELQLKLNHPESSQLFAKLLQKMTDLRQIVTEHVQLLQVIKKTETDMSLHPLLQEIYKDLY
# UniProt O75469: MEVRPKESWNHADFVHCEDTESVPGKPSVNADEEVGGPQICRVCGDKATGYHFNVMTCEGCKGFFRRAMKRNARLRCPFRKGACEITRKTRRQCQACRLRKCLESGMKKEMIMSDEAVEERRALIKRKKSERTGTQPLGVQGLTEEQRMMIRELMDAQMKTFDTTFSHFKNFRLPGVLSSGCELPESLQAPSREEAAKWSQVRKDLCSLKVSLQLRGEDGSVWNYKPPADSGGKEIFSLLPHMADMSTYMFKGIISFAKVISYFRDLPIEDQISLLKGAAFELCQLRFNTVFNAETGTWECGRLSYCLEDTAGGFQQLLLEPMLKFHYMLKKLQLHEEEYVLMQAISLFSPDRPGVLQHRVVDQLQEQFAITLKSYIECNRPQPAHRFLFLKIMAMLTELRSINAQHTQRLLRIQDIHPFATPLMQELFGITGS
# UniProt P13631, whole entry, looked up: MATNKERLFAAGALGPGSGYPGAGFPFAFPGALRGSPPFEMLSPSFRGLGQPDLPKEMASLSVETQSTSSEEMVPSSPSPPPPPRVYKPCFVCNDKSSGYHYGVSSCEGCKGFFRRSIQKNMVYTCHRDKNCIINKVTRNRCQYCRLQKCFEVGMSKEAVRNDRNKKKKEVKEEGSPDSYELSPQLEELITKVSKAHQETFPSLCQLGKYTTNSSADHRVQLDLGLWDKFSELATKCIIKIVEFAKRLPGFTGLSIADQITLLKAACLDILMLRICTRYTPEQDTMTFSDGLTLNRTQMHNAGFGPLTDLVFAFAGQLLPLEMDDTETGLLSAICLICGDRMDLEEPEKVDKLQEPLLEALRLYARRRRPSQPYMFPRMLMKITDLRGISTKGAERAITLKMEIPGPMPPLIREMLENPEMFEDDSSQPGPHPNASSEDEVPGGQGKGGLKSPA
# UniProt Q92753: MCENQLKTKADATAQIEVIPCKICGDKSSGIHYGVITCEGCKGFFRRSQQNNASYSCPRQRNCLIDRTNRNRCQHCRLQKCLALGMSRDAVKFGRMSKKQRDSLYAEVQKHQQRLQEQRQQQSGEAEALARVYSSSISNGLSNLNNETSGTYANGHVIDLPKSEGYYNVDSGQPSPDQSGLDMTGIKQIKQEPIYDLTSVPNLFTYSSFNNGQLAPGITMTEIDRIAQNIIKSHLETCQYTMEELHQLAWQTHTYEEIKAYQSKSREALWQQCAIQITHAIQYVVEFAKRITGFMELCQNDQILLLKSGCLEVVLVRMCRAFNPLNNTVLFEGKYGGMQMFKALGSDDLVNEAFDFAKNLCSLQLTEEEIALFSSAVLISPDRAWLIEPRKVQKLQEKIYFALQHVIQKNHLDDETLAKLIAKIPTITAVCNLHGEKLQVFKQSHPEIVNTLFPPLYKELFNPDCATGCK
# UniProt P28702: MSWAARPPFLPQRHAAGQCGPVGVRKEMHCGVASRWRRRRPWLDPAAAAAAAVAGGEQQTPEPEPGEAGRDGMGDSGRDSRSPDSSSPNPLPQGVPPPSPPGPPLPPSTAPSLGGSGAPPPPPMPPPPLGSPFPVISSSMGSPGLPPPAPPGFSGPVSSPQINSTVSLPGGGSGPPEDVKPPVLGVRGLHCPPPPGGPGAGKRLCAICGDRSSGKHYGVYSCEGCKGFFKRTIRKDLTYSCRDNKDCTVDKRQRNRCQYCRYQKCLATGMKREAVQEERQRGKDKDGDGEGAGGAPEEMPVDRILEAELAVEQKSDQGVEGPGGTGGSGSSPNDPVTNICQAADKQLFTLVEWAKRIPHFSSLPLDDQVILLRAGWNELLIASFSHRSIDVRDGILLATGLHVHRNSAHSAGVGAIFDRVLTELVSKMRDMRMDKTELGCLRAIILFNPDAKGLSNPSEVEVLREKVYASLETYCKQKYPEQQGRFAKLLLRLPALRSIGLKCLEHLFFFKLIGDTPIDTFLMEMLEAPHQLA
# UniProt P11473: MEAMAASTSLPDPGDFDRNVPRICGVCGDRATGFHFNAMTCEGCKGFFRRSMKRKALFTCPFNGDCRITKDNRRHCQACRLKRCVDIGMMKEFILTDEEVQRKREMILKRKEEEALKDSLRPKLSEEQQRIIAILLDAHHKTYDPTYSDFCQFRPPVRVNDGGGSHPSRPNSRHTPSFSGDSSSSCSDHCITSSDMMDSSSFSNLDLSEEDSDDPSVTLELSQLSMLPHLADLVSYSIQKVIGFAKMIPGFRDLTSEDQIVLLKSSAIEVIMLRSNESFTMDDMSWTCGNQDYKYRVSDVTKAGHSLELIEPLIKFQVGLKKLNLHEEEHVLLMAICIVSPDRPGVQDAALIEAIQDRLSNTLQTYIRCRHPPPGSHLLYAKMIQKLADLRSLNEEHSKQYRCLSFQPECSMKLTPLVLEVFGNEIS
# UniProt P51449: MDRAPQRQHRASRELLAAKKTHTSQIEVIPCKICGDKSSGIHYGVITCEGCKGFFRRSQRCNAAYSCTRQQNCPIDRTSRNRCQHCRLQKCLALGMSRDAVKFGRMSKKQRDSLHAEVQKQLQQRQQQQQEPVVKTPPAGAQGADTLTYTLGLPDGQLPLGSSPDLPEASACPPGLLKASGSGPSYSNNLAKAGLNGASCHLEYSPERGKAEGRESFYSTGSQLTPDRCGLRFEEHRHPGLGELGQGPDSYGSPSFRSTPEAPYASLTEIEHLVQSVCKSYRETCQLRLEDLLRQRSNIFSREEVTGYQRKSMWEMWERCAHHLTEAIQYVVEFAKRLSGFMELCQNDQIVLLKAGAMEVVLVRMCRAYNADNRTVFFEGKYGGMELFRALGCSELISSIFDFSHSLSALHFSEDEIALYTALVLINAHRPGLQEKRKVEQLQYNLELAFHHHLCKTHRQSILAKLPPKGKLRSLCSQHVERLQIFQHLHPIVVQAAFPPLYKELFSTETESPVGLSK
# UniProt P19793: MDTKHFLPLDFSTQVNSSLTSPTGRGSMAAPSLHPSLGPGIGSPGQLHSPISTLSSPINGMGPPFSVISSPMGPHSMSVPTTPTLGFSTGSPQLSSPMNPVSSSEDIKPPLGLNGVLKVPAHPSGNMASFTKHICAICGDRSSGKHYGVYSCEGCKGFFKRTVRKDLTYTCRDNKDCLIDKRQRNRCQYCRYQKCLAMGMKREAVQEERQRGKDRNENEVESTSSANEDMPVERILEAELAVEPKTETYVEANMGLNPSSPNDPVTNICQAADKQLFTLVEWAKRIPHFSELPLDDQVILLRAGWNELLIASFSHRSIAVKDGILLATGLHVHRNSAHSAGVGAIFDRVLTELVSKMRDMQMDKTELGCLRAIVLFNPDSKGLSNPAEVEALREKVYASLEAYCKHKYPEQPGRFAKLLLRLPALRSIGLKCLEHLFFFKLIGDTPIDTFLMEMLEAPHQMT
# UniProt P10827: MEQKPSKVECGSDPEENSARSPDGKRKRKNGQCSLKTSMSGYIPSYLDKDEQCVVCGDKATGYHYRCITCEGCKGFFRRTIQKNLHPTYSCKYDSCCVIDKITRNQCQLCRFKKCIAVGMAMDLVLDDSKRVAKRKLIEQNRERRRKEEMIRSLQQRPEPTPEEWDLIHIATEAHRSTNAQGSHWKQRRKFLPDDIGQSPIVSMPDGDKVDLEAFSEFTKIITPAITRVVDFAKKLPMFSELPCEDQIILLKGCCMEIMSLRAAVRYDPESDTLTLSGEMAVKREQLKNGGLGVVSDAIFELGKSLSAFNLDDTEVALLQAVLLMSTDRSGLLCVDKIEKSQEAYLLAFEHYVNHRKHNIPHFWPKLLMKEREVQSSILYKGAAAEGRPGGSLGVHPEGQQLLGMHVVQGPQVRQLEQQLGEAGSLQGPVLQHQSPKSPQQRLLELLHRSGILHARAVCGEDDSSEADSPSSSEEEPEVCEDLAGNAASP
# Assays:
# [1] = biological target: Retinoic acid receptor alpha (Homo sapiens) (UniProt P10276); assay: ATG_RARa_TRANS: Attagene TRANS-FACTORIAL HepG2 Assay for human Retinoic Acid Receptor alpha (RARa) (AID 2283005);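 for AC50: potency for increased reporter signal meaning RARa activation over DMSO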
# Summary of the method: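 HepG2 cells transiently transfected with multiple reporter units expressing chimeric RARα-GAL4 fusion, with GAL4-UAS-driven reporters. After 24 h compound exposure, reporter mRNA induction quantified by RT-PCR and capillary electrophoresis with fluorescent labeling; gain-of-signal fitted relative to DMSO control.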
# [2] = biological target: Peroxisome proliferator-activated receptor gamma (Homo sapiens) (UniProt P37231); assay: ATG_PPARg_TRANS: Attagene TRANS-FACTORIAL HepG2 Assay for human Peroxisome Proliferator-activated Receptor-gamma (PPARg) (AID 2283007)
# Summary of the method: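 Read-out: reporter mRNA induction, detected by fluorescence after RT-PCR and capillary electrophoresis. Transiently transfected human HepG2 liver cells carrying a chimeric NR-Gal4 construct were dosed for 24 h; activity was fitted upward relative to DMSO.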
# [3] = biological target: Nuclear receptor subfamily 1 group I member 2 (Homo sapiens) (UniProt O75469); assay: ATG_PXR_TRANS: Attagene TRANS-FACTORIAL HepG2 Assay for human Pregnane X Receptor (PXR) (AID 2283008)
# Summary of the method: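 Transactivation by exogenous PXR–GAL4 fusion measured as reporter transcript induction after 24 h compound treatment of transfected human HepG2 cells. Read-out via RT-PCR and capillary electrophoresis of labelled fragments, fitted upward relative to DMSO.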
# [4] = biological target: human Retinoic Acid Receptor gamma (RARg), RARG (gene 5916) (UniProt P13631); assay: ATG_RARg_TRANS: Attagene TRANS-FACTORIAL HepG2 Assay for human Retinoic Acid Receptor gamma (RARg) (AID 2283009);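 for AC50: AC50 is for reporter induction above DMSO meaning RARg activation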
# Summary of the method: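 Gain-of-signal relative to DMSO is reported from fluorescent capillary electrophoresis of RT-PCR reporter products. These came from HepG2 cells expressing transfected RARg-GAL4 chimeras with UAS reporters, harvested 24 h after dosing.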
# [5] = biological target: human RAR-related Orphan Receptor beta (RORb), RORB (gene 6096) (UniProt Q92753); assay: ATG_RORb_TRANS: Attagene TRANS-FACTORIAL HepG2 Assay for human RAR-related Orphan Receptor beta (RORb) (AID 2283010);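 for AC50: potency for increased reporter mRNA meaning activation of RORb-Gal4 chimera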
# Summary of the method: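 Multiplexed transcription-factor reporter assay: HepG2 cells transiently carrying NR-Gal4/GAL4-UAS constructs, 24 h treatment, mRNA quantified by RT-PCR plus capillary electrophoresis fluorescence; activity scored as induction over DMSO.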
# [6] = biological target: human Retinoid X Receptor beta (RXRb), RXRB (gene 6257) (UniProt P28702); assay: ATG_RXRb_TRANS: Attagene TRANS-FACTORIAL HepG2 Assay for human Retinoid X Receptor beta (RXRb) (AID 2283013)
# Summary of the method: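 After a 24 h incubation with test chemical, transfected HepG2 cells carrying NR-Gal4 fusions and GAL4-UAS reporter transcription units yield RNA whose reporter cDNA is FAM-labelled, HpaI-cut and sized by capillary electrophoresis; increases over DMSO are scored.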
# [7] = biological target: human Vitamin D Receptor (VDR), VDR (gene 7421) (UniProt P11473); assay: ATG_VDR_TRANS: Attagene TRANS-FACTORIAL HepG2 Assay for human Vitamin D Receptor (VDR) (AID 2283022)
# Summary of the method: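 Steps: transfect HepG2 with GAL4-UAS-driven reporter constructs; dose compounds 24 h; isolate RNA, reverse-transcribe, PCR-amplify with 6-FAM-labelled primer extension and HpaI digestion; quantify fragments by capillary electrophoresis relative to DMSO.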
# [8] = biological target: human RAR-related Orphan Receptor gamma (RORg), RORC (gene 6097) (UniProt P51449); assay: ATG_RORg_TRANS: Attagene TRANS-FACTORIAL HepG2 Assay for human RAR-related Orphan Receptor gamma (RORg) (AID 2283011);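 for AC50: potency for induction of reporter transcripts above DMSO so activators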
# Summary of the method: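 First, HepG2 liver cells were transfected with GAL4-UAS-driven reporter constructs and the RORg-Gal4 fusion. Next, they were treated with chemical for 24 h. Finally, reporter mRNA was quantified by RT-PCR and capillary electrophoresis, with upward activity fitted against DMSO.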
# [9] = biological target: Retinoic acid receptor RXR-alpha (Homo sapiens) (UniProt P19793); assay: ATG_RXRa_TRANS: Attagene TRANS-FACTORIAL HepG2 Assay for human Retinoid X Receptor alpha (RXRa) (AID 2283012)
# Summary of the method: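 Chimeric NR-GAL4 trans-activation in HepG2, 24 h treatment; reporter transcripts quantified by fluorescence on capillary electrophoresis, analysed for upward change from DMSO.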
# [10] = biological target: human Thyroid Receptor alpha (THRa1), THRA (gene 7067) (UniProt P10827); assay: ATG_THRa1_TRANS: Attagene TRANS-FACTORIAL HepG2 Assay for human Thyroid Receptor alpha (THRa1) (AID 2283014)
# Summary of the method: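 Reporter transcript induction, read by capillary electrophoresis of 6-FAM-labelled RT-PCR products, reflects activity of a transfected THRa1-Gal4 fusion in HepG2 liver cells. Cells were dosed for 24 h; activity was fitted in the positive direction against DMSO.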
smiles,measurement,setting,value
CCc1cccc(CC)c1N(COC)C(=O)CCl,AC50,[1],inconclusive: 7.75 µM
same,AC50,[2],active: 1.79 µM
same,outcome,[3],inactive
same,outcome,[4],inactive
same,AC50,[5],inconclusive: 7.75 µM
same,AC50,[8],inconclusive: 14.2 µM
same,outcome,[9],inactive
same,AC50,[6],inconclusive: 7.75 µM
same,outcome,[10],inactive
same,AC50,[7],inconclusive: 7.75 µM
COC(=O)c1ccccc1CS(=O)(=O)NC(=O)Nc1nc(OC)cc(OC)n1,outcome,[1],inactive
same,outcome,[2],inactive
same,AC50,[4],inconclusive: 0.127 µM
same,outcome,[4],inactive
same,AC50,[5],inconclusive: 100 µM
same,AC50,[8],inconclusive: 100 µM and inconclusive: 50 µM
same,outcome,[9],inactive
same,AC50,[6],inconclusive: 100 µM
same,outcome,[6],inactive
same,AC50,[7],inconclusive: 0.0128 µM
COC(F)(C(F)(F)C(F)(F)F)C(F)(C(F)(F)F)C(F)(F)F (stereo not drawn),outcome,[1],inactive
same,AC50,[2],inconclusive: 150 µM
same,AC50,[3],inconclusive: 150 µM
same,AC50,[4],inconclusive: 150 µM
same,AC50,[5],inconclusive: 150 µM and inconclusive: 271 µM
same,AC50,[9],inconclusive: 150 µM
same,AC50,[6],inconclusive: 150 µM
same,outcome,[6],inactive
same,AC50,[10],inconclusive: 150 µM
same,outcome,[10],inactive
same,AC50,[7],inconclusive: 150 µM
O=C(Cc1ccccc1)OCCc1ccccc1,AC50,[1],inconclusive: 177 µM
same,outcome,[2],inactive
same,AC50,[3],inconclusive: 182 µM
same,outcome,[4],inactive
same,AC50,[5],inconclusive: 100 µM
same,outcome,[8],inactive
same,AC50,[9],inconclusive: 0.0823 µM
same,AC50,[10],inconclusive: 184 µM
same,outcome,[7],inactive
O=[N+]([O-])c1ccc(Cl)c([N+](=O)[O-])c1,AC50,[1],inconclusive: 3.71 µM
same,AC50,[2],inconclusive: 3.71 µM
same,AC50,[3],inconclusive: 0.000113 µM
same,AC50,[4],inconclusive: 2.19 µM
same,AC50,[9],inconclusive: 3.71 µM
same,AC50,[10],inconclusive: 1.87 µM
same,AC50,[7],inconclusive: 0.00193 µM
CCCCOC(=O)COC(=O)c1ccccc1C(=O)OCCCC,AC50,[1],inconclusive: 100 µM
same,AC50,[2],active: 51.4 µM
same,AC50,[4],inconclusive: 177 µM
same,AC50,[5],inconclusive: 0.111 µM
same,outcome,[8],inactive
same,AC50,[9],inconclusive: 100 µM
same,AC50,[6],inconclusive: 100 µM
Oc1c(Br)cc(Br)cc1Br,outcome,[1],inactive
same,AC50,[2],active: 11.9 µM
same,AC50,[3],active: 7.95 µM
same,outcome,[5],inactive
same,AC50,[8],inconclusive: 100 µM
same,outcome,[6],inactive
same,AC50,[10],active: 100 µM
CC(C)(COCC1CO1)COCC1CO1 (stereo not drawn),AC50,[1],inconclusive: 100 µM
same,outcome,[2],inactive
same,AC50,[4],inconclusive: 100 µM
same,AC50,[5],inconclusive: 100 µM
same,outcome,[8],inactive
same,AC50,[9],inconclusive: 100 µM
c1ccc(Nc2ccc3ccccc3c2)cc1,AC50,[1],inconclusive: 26.9 µM
same,AC50,[2],active: 18 µM
same,AC50,[3],active: 7.59 µM
same,AC50,[4],inconclusive: 19.8 µM
same,AC50,[8],inconclusive: 182 µM

# Reprinted at random: 4 entries already listed, in no set order.
smiles,measurement,setting,value
COC(F)(C(F)(F)C(F)(F)F)C(F)(C(F)(F)F)C(F)(F)F (stereo not drawn),AC50,[6],inconclusive: 150 µM
same,outcome,[10],inactive
O=C(Cc1ccccc1)OCCc1ccccc1,AC50,[3],inconclusive: 182 µM
CCCCOC(=O)COC(=O)c1ccccc1C(=O)OCCCC,outcome,[8],inactive

# From PubChem BioAssay (EPA / NIEHS)
